Experimental data taken from US6355642B1, “Tetrahydrobenzindole compounds” (Meiji Seika Kaisha, Ltd., priority 1996, dated 2002).
At least one structure is not confirmed: it was looked up by name or label, or the drawing left a doubt.

Amino acid sequences for entries named in this document (tags omitted).
UniProt P34969, whole entry: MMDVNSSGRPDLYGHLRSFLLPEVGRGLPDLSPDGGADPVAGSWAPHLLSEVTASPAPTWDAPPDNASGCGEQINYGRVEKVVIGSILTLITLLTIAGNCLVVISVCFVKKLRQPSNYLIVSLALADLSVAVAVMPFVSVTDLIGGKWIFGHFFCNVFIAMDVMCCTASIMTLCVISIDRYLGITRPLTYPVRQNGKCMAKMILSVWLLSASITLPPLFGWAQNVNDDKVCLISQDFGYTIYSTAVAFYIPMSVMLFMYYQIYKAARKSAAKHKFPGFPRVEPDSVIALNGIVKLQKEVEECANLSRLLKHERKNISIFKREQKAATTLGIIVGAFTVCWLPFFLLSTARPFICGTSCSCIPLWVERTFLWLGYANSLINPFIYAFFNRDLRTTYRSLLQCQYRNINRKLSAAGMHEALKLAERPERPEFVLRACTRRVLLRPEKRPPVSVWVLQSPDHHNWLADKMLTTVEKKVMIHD

Biological target: T1, human serotonin 5-HT7 receptor subtype (Homo sapiens, UniProt P34969)
T1 construct: expressed in transfected cells
Experiment: Binding affinity for 5-HT7 receptor ([3H]-5-CT displacement, membrane fraction of expressing cells)
Conditions: ratio of dissociation constants Ki 5-HT2 / Ki 5-HT7
Description: Binding Affinity for 5-HT7 Receptor
Cultured cells capable of expressing human serotonin 5-HT7 receptor subtype were collected in an assay buffer (50 mM Tris-HCl, pH 7.4, containing […], 0.2 mM EDTA, 0.001% pargyline and 0.1% ascorbic acid) and homogenized with a Potter type homogenizer. Then the membrane fraction was subjected to 20 minutes of centrifugation at 39,000 g and at 4° C. The thus obtained pellet was re-suspended in 1 ml (per cells per one culture dish of 10 cm in diameter) of the assay buffer and homogenized again. This test was carried out on 1 nM in final concentration of [^3H]-5-CT (carboxamide triptamine) and 1 to 1, 000 nM of the compounds of Examples 1 to 90 represented by the general formula (I). A 100 μl of the membrane fraction was added to the reaction tube, final assay volume was adjusted to 500 μl, and the reaction was carried out by incubating the medium at 37° C. for 15 minutes. […] Radioactivity was measured using Packard liquid scintillation counter. Non-specific binding was determined by 10 μM metergoline, and the specific binding was calculated based on the difference. IC50 value of each compound was determined by non-linear least square regression analysis, and dissociation constant Ki was calculated from the value.

Compound	5-HT2/5-HT7
COc1ccccc1N1CCN(CCCCC23CCCc4cccc(c42)NC3=O)CC1 (centres unmarked) [Compound 5, 2a-[4-{4-(2-Methoxyphenyl)piperazinyl}butyl]-2a,3,4,5-tetrahydrobenz[cd]indole-2(1H)-one]	7.0
COC1(c2ccccc2)CCN(CCCCC23CCCc4cccc(c42)NC3=O)CC1 (centres unmarked) [Compound 56, 2a-[4-(4-Methoxy-4-phenyl-piperidyl)butyl]-2a,3,4,5-tetrahydrobenz[cd]indole-2(1H)-one]	15.0
